In test [1] the target is T1, Flag-tagged full-length TRPM8 (Flag-TRPM8) (rat), Q8R455. Briefly: cross-linking; PANC-1 cells transfected, treated with 1 μM DSS for 30 min before harvest; lysates on Western blot; with or without HA-LCK, siLCK, GFP-14-3-3ζ or si14-3-3ζ. To be noted: remark: other sources report otherwise. On the technique in general: In western blotting, separated proteins are transferred to a membrane and probed.

Test [2] has as its target T1, Flag-tagged full-length TRPM8 …. Briefly: co-IP; AsPC-1 cells co-transfected with Flag- and GFP-tagged TRPM8; IP with anti-Flag antibody; with or without HA-LCK, PP2, siLCK or si14-3-3ζ; Western blot. To be noted: remark: other sources report otherwise.

No constants are given. Whether binding was seen depends on the method and setting. Binding seen in cells or lysates may run through a third protein. Some binding calls cover weakened binding; strength is not graded here. Sequences can lack the tags named with a protein.

B1: Flag-tagged full-length TRPM8 (Flag-TRPM8), Q8R455 1-1104 (protein)
chain: MSFEGARLSMRSRRNGTLGSTRTLYSSVSRSTDVSYSESDLVNFIQANFKKRECVFFTRDSKAMESICKCGYAQSQHIEGTQINQNEKWNYKKHTKEFPTDAFGDIQFETLGKKGKYLRLSCDTDSETLYELLTQHWHLKTPNLVISVTGGAKNFALKPRMRKIFSRLIYIAQSKGAWILTGGTHYGLMKYIGEVVRDNTISRNSEENIVAIGIAAWGMVSNRDTLIRNCDDEGHFSAQYIMDDFMRDPLYILDNNHTHLLLVDNGCHGHPTVEAKLRNQLEKYISERTSQDSNYGGKIPIVCFAQGGGRETLKAINTSVKSKIPCVVVEGSGQIADVIASLVEVEDVLTSSMVKEKLVRFLPRTVSRLPEEEIESWIKWLKEILESPHLLTVIKMEEAGDEVVSSAISYALYKAFSTNEQDKDNWNGQLKLLLEWNQLDLASDEIFTNDRRWESADLQEVMFTALIKDRPKFVRLFLENGLNLQKFLTNEVLTELFSTHFSTLVYRNLQIAKNSYNDALLTFVWKLVANFRRSFWKEDRSSREDLDVELHDASLTTRHPLQALFIWAILQNKKELSKVIWEQTKGCTLAALGASKLLKTLAKVKNDINAAGESEELANEYETRAVELFTECYSSDEDLAEQLLVYSCEAWGGSNCLELAVEATDQHFIAQPGVQNFLSKQWYGEISRDTKNWKIILCLFIIPLVGCGLVSFRKKPIDKHKKLLWYYVAFFTSPFVVFSWNVVFYIAFLLLFAYVLLMDFHSVPHTPELILYALVFVLFCDEVRQWYMNGVNYFTDLWNVMDTLGLFYFIAGIVFRLHSSNKSSLYSGRVIFCLDYIIFTLRLIHIFTVSRNLGPKIIMLQRMLIDVFFFLFLFAVWMVAFGVARQGILRQNEQRWRWIFRSVIYEPYLAMFGQVPSDVDSTTYDFSHCTFSGNESKPLCVELDEYNLPRFPEWITIPLVCIYMLSTNILLVNLLVAMFGYTVGIVQENNDQVWKFQRYFLVQEYCNRLNIPFPFVVFAYFYMVVKKCFKCCCKEKNTESSACCFRNEDNETLAWEGVMKENYLVKINTKANDNAEEMRHRFRQLDTKLNDLKGLLKEIANKIK
As to B1, in test [1], the binding result is recorded as “binds”.

B2: GFP-tagged wild-type TRPM8 (GFP-TRPM8), Q8R455 1-1104 (protein)
chain: MSFEGARLSMRSRRNGTLGSTRTLYSSVSRSTDVSYSESDLVNFIQANFKKRECVFFTRDSKAMESICKCGYAQSQHIEGTQINQNEKWNYKKHTKEFPTDAFGDIQFETLGKKGKYLRLSCDTDSETLYELLTQHWHLKTPNLVISVTGGAKNFALKPRMRKIFSRLIYIAQSKGAWILTGGTHYGLMKYIGEVVRDNTISRNSEENIVAIGIAAWGMVSNRDTLIRNCDDEGHFSAQYIMDDFMRDPLYILDNNHTHLLLVDNGCHGHPTVEAKLRNQLEKYISERTSQDSNYGGKIPIVCFAQGGGRETLKAINTSVKSKIPCVVVEGSGQIADVIASLVEVEDVLTSSMVKEKLVRFLPRTVSRLPEEEIESWIKWLKEILESPHLLTVIKMEEAGDEVVSSAISYALYKAFSTNEQDKDNWNGQLKLLLEWNQLDLASDEIFTNDRRWESADLQEVMFTALIKDRPKFVRLFLENGLNLQKFLTNEVLTELFSTHFSTLVYRNLQIAKNSYNDALLTFVWKLVANFRRSFWKEDRSSREDLDVELHDASLTTRHPLQALFIWAILQNKKELSKVIWEQTKGCTLAALGASKLLKTLAKVKNDINAAGESEELANEYETRAVELFTECYSSDEDLAEQLLVYSCEAWGGSNCLELAVEATDQHFIAQPGVQNFLSKQWYGEISRDTKNWKIILCLFIIPLVGCGLVSFRKKPIDKHKKLLWYYVAFFTSPFVVFSWNVVFYIAFLLLFAYVLLMDFHSVPHTPELILYALVFVLFCDEVRQWYMNGVNYFTDLWNVMDTLGLFYFIAGIVFRLHSSNKSSLYSGRVIFCLDYIIFTLRLIHIFTVSRNLGPKIIMLQRMLIDVFFFLFLFAVWMVAFGVARQGILRQNEQRWRWIFRSVIYEPYLAMFGQVPSDVDSTTYDFSHCTFSGNESKPLCVELDEYNLPRFPEWITIPLVCIYMLSTNILLVNLLVAMFGYTVGIVQENNDQVWKFQRYFLVQEYCNRLNIPFPFVVFAYFYMVVKKCFKCCCKEKNTESSACCFRNEDNETLAWEGVMKENYLVKINTKANDNAEEMRHRFRQLDTKLNDLKGLLKEIANKIK
For the molecule B2, the binding result in test [2] was “binds”.
